The direction of at least one scale is not stated here.
Biological target: ERα full length (UniProt P03372)
Assay: aptamer ELISA
Details: 500 nM aptamer; ELISA: 2 h at RT, 2% BSA block; commercial protein; residues 1-595; label: biotin; single-stranded DNA

Chains of the proteins cited; added tags and fusions are not shown.
UniProt P03372, whole entry: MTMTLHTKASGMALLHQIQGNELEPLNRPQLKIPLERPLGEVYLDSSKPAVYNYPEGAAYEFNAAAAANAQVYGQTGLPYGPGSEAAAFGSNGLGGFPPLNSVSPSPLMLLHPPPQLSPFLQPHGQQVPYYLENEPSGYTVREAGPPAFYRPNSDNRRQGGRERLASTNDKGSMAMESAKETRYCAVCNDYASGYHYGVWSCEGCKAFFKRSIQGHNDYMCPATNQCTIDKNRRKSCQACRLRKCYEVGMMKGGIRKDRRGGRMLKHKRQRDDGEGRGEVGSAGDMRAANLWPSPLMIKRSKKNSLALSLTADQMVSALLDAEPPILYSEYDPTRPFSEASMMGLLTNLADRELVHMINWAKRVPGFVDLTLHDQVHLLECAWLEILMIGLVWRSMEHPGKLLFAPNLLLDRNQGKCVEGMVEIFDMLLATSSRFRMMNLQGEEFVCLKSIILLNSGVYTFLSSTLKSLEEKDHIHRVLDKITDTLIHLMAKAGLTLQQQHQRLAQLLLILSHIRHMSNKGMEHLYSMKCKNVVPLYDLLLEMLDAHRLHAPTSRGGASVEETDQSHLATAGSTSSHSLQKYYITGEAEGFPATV

Binding signal (% of anti-ERα antibody signal), < 10:
ATACCAGCTTATTCAATTCGCATAGGCAAAACGGTGCGGTGCATATTCGTGACAAGCGAGATAGTATGTGCAATCA [ERaptD6]
ATACCAGCTTATTCAATTCACAGGGCTGTTTTTACGCAATGCTAGTGTTCGACTCAGTAGATAGTATGTGCAATCA [ERaptD9]
ATACCAGCTTATTCAATTAGGTACAGAAGGCGCGACAGAAACTGCGGTCCCAGGGCGTAGATAGTATGTGCAATCA [ERaptD1]
ATACCAGCTTATTCAATTCACTAATACTAGGCGGTCCACGCGCAGTTAAACCGGTCAAAGATAGTATGTGCAATCA [ERaptD10]
ATACCAGCTTATTCAATTGGCGGGCAGCGATTGTACCGGTACCACCTGGCAATGTAGAAGATAGTATGTGCAATCA [ERaptD2]
ATACCAGCTTATTCAATTGGACGGATGCACACACTACTGACCGGTTTTCGCCAGCCCCAGATAGTATGTGCAATCA [ERaptD7]
ATACCAGCTTATTCAATTGCAGCAGTGTCATATGAGGGCGTTCGTCAAATGTGCAGGGAGATAGTATGTGCAATCA [ERaptD5]

Reference: paper PMC4820125
